Test results: PubChem BioAssay AID624291 (National Center for Advancing Translational Sciences (NCATS), 2012)
Screen size: about 350,000 compounds; about 220 (0.063%) were called active. The inconclusive results got no clear call from the source; some entries with a clear call stand among them for comparison. Calls follow the shape of the dose curve; as a rule, active = well fitted activation curve with a large enough effect; inconclusive = small, poorly fitted or top-dose-only effect; inactive = no such curve, though single readings can be large or run the other way. A potency beside an inconclusive call is a rough fit, not a confirmed value.

experiment: qHTS for Activators of Integrin-Mediated Alleviation for Muscular Dystrophy; details: alpha7betagal myoblasts, beta-gal FDG fluorescence, 48 h; activation: at 38.3 µM (top of the series); also: nearly all actives have a fitted effect of over 60% in size;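 as to activation: 100% = response of the positive control SU9516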
Procedure, shortened: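 alpha7betagal+/- myoblasts (passage 13, 250/well) treated 48 h at 37C with compounds at 1:260 dilution of DMSO stock. Lysed, then beta-galactosidase activity read as FDG fluorescence (ex 480/em 540) after 30 min, with pre-read for autofluorescence.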
Potency is read from the fitted curve at half-maximal effect.

| Compound | Potency | activation |
| --- | --- | --- |
| CCCSc1nc2ccccc2n1CC(=O)O | inconclusive: 28.2 µM [activator, single point] | – |
| CCOC(=O)c1c(S(=O)(=O)N2CCCC(C)C2)c(C)n(C)c1C (stereo not given) | inconclusive: 5.01 µM [activator, partial curve, poor fit] | – |
| CC(C(=O)NC1CCCC1)N(c1ccc(Oc2ccccc2)cc1)S(C)(=O)=O (stereo not given) | inconclusive: 10 µM [activator, partial curve, poor fit] | – |
| c1ccc(-c2nc(NCc3ccco3)c3oc4ccccc4c3n2)cc1 | inactive | – |
| COc1ccc(COc2ncnc3ccc(Br)cc23)cc1F | inconclusive: 28.2 µM [activator, single point] | – |
| Cc1cc(C)c(OCC(O)CN2CCN(c3ccccn3)CC2)c(C)c1 (stereo not given) | inactive | – |
| N#C/C(=N\Nc1cccc(Cl)c1)C(=O)c1ccccc1 | inactive | – |
| CCCCn1c(SCC(=O)Nc2ccc(NC(C)=O)cc2)nc2ccccc2c1=O | inconclusive: 5.01 µM [activator, single point] | – |
| Clc1ccc(-c2cnc3n2CCCCC3)cc1 | inconclusive: 1.58 µM [activator, single point] | – |
| Cc1ccc(NC(=O)Cc2noc3ccccc23)nc1 | inconclusive: 3.55 µM [activator, single point] | – |
| CCOc1ccc(-c2c(=O)n(O)c3ccccc3[n+]2[O-])cc1 | inconclusive: 5.01 µM [activator, single point] | – |
| CC(=O)NC(CSC(CC(=O)c1ccco1)c1ccc(C)cc1)C(=O)O (stereo not given) | inconclusive: 2.82 µM [activator, single point] | – |
| CN1CCC(OC(=O)c2ccc(Br)cc2)CC1 | inactive | – |
| O=C1CC(c2ccccc2)=Nc2ccc(Br)cc2N1 | – | inconclusive: -56.6% [activator] |
| COCCCNC(=S)N(CCCO)Cc1cc2cc3c(cc2[nH]c1=O)OCO3 | inconclusive: 5.01 µM [activator, partial curve, poor fit] | – |
| COC(=O)CN(C)C(=O)CC1C(=O)NCCN1CC(C)(C)C (stereo not given) | inconclusive: 2.51 µM [activator, single point] | – |
| COCC1CCN(Cc2cn[nH]c2-c2cc3ccccc3o2)C1 (stereo not given) | inconclusive: 2.51 µM [activator, partial curve, poor fit] | – |
| Cc1ccc(-n2c3c(c(O)c(-c4ccccc4)c2=O)C(=O)CC(C)(C)C3)cc1 | inconclusive: 14.1 µM [activator, single point] | – |
| C=CCn1cnc2c(nnn2-c2ccc(C)c(Cl)c2)c1=O | inactive | – |
| COP(=O)(CC(=O)c1ccccc1)CC(=O)c1ccccc1 | inconclusive: 28.2 µM [activator, single point] | – |

Five successive compounds from above, for reference:

| Compound | Potency | activation |
| --- | --- | --- |
| CCOc1ccc(-c2c(=O)n(O)c3ccccc3[n+]2[O-])cc1 | inconclusive: 5.01 µM [activator, single point] | – |
| CC(=O)NC(CSC(CC(=O)c1ccco1)c1ccc(C)cc1)C(=O)O (stereo not given) | inconclusive: 2.82 µM [activator, single point] | – |
| CN1CCC(OC(=O)c2ccc(Br)cc2)CC1 | inactive | – |
| O=C1CC(c2ccccc2)=Nc2ccc(Br)cc2N1 | – | inconclusive: -56.6% [activator] |
| COCCCNC(=S)N(CCCO)Cc1cc2cc3c(cc2[nH]c1=O)OCO3 | inconclusive: 5.01 µM [activator, partial curve, poor fit] | – |
